Assay results published in publication PMC11408250.
Results are given in words; binding and its absence hold for the method and conditions named. Binding seen in cells or lysates may run through a third protein. A yes stands for co-enrichment or nearness to the bait. Other partners may have been found. Sequences can lack the tags named with a protein.

Biological target: T1, PCDH19-HA-FLAG (Protocadherin 19, endogenous in Pcdh19-HA-FLAG mice) (mouse (endogenous in mouse brain)) (UniProt Q80TF3)
T1 sequence: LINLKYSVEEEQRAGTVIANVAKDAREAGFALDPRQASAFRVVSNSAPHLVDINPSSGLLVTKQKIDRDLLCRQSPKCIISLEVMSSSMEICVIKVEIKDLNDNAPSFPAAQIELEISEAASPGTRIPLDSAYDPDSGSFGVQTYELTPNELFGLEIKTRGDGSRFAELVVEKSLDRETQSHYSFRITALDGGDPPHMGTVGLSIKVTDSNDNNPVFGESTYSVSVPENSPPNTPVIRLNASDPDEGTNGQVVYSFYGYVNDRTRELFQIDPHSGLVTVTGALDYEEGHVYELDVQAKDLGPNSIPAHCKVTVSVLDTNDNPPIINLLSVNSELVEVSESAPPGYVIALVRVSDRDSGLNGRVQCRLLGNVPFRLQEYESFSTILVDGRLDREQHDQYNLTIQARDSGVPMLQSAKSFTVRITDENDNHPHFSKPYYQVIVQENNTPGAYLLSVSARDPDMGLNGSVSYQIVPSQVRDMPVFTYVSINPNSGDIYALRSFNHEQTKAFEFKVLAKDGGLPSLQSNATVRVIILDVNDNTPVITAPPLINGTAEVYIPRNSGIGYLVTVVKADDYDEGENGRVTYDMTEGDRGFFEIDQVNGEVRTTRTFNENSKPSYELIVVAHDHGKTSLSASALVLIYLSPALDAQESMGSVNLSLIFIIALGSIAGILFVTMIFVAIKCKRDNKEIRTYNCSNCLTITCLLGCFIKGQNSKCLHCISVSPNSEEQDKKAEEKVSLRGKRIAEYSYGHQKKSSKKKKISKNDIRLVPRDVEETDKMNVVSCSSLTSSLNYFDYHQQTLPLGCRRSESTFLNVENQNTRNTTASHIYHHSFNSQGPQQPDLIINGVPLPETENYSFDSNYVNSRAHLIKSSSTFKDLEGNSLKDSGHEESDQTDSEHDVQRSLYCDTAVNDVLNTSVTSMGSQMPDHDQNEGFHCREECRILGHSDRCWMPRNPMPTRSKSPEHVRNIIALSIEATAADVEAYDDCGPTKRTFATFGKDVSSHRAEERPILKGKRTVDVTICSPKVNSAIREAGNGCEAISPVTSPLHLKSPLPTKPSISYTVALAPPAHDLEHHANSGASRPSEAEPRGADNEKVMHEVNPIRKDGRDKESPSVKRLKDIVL
Assay: affinity purification with mass spectrometry; Experiment 1: PCDH19-HA-FLAG precipitated with anti-FLAG M2 affinity gel from E18.5 mouse cortex lysate, control untagged mice; IP Buffer (50 mM Tris-HCl pH 7.5, 150 mM NaCl, 0.2% Triton-X-100, 2 mM EDTA, 0.01% SDS), overnight 4 °C; LC-MS/MS

binding: binds
B1: Sorbin and SH3 domain containing 2 (protein, UniProt Q3UTJ2 1-1180)
chain: MNTDSGGCARKRAAMSVTLTSVKRVQSSPNLLAAGRESQSPDSAWRSYNDRNPETLNGDATYSSLAAKGFRSVRPNLQDKRSPTQSQITINGNSGGAVSPVSYYQRPFSPSAYSLPASLNSSIIMQHGRSLDSAETYSQHAQSLDGTMGSSIPLYRSSEEEKRVTVIKAPHYPGIGPVDESGIPTAIRTTVDRPKDWYKTMFKQIHMVHKPGLYNSPYSAQSHPAAKTQTYRPLSKSHSDNGTDAFKEVPSPVPPPHVPPRPRDQSSTLKHDWDPPDRKVDTRKFRSEPRSIFEYEPGKSSILQHERPVSIYQSSIDRSLERPSSSASMAGDFRKRRKSEPAVGPLRGLGDQSSSRTSPGRADLPGSSSTFTKSFISSSPSSPSRAQGGDDSKMCPPLCSYSGLNGTPSGELECCNAYRQHLDVPGDSQRAITFKNGWQMARQNAEIWSSTEETVSPKIKSRSCDDLLNDDCDSFPDPKTKSESMGSLLCEEDSKESCPMTWASPYIQEVCGNSRSRLKHRSAHNAPGFLKMYKKMHRINRKDLMNSEVICSVKSRILQYEKEQQHRGLLHGWSQSSTEEVPRDVVPTRISEFEKLIQKSKSMPNLGDEMLSPITLEPPQNGLCPKRRFSIESLLEEETQVRHPSQGQRSCKSNTLVPIHIEVTSDEQPRTHMEFSDSDQDGVVSDHSDYVHVEGSSFCSESDFDHFSFTSSESFYGSSHHHHHHHHHHRHLISSCKGRCPASYTRFTTMLKHERAKHENMDRPRRQEMDPGLSKLAFLVSPVPFRRKKILTPQKQTEKAKCKASVVEALDSALKDICDQIKAEKRRGSLPDNSILHRLISELLPQIPERNSSLHALKRSPMHQPFHPLPPDGASHCPLYQNDCGRMPHSASFPDVDTTSNYHAQDYGSALSLQDHESPRSYSSTLTDLGRSASRERRGTPEKEKLPAKAVYDFKAQTSKELSFKKGDTVYILRKIDQNWYEGEHHGRVGIFPISYVEKLTPPEKAQPARPPPPVQPGEIGEAIAKYNFNADTNVELSLRKGDRIILLKRVDQNWYEGKIPGTNRQGIFPVSYVEVVKRNAKGAEDYPDPPLPHSYSSDRIYTLSSNKPQRPGFSHENIQGGGEPFQALYNYTPRNEDELELRESDVVDVMEKCDDGWFVGTSRRTKFFGTFPGNYVKRL
